# Results of single-concentration screens

By UniProt entry, the sequences of proteins in these tests, tags left out.
UniProt P9WPC5, whole entry: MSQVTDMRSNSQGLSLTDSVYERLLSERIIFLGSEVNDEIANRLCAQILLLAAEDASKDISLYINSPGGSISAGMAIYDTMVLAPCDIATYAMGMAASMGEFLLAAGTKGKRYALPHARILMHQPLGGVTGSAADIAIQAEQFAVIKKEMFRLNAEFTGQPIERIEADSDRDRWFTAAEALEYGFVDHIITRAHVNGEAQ
UniProt P9WPC3, whole entry partner: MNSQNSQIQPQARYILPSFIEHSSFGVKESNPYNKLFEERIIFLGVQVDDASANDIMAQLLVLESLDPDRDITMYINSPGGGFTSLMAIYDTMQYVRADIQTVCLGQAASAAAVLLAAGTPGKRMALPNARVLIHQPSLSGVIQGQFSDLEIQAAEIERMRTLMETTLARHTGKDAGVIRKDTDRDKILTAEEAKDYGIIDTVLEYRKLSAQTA

Data taken from ChEMBL document CHEMBL3988442, “University of Dundee, Small-Polar-MMV Screening Library” (2021).

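ClpP1P2, Mycobacterium tuberculosis (UniProt P9WPC5 and UniProt P9WPC3). Protease assay of ClpP1P2, read by the AMC dye that it sets free. Tested at 50 µM. Direction is inferred from only a few compounds that gave an IC50; most scored high, so higher reads as stronger inhibition. Most other retested compounds had strongly negative values. Size under these conditions: about 69,000 compounds, about 10 of them at 50% or above in at least one test.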

Values are the deposited “Percent Effect”, in %. How 0% and 100% were set is not recorded. Most values in the screen are low, and negative values occur. This is an unselected part of the compounds tested.

| # | structure | percent effect |
|---|---|---|
| 1 | `Cc1n[nH]c(SCC(=O)NC(c2ccncc2)C(C)C)n1` (stereo not drawn) | -10.83 |
| 2 | `Cc1noc(C)c1CN(C)Cc1csc(-c2ccc(F)cc2)n1` | -9.083 |
| 3 | `Cc1cncc(CN2C[C@@H](O)[C@H](Oc3ccccc3)C2)c1` | 17.03 |
| 4 | `CC(O)(CNC(=O)NCCc1ccc2c(c1)CCO2)c1ccsc1` (stereo not drawn) | -10.08 |
| 5 | `Cc1nnc(CN2CCCC(c3noc(C4CC4)n3)C2)o1` (stereo not drawn) | -21.77 |
| 6 | `CN(C)CCNCC1COCc2c(-c3ccnn3C)nnn2C1` (stereo not drawn) | -6.527 |
| 7 | `CSc1ccc(-c2cc(CN)nc3ccnn23)cc1` | 5.167 |
| 8 | `CC(C)c1nc(O)c2nnn(C[C@H]3CCCN(Cc4ccsc4)C3)c2n1` | -11.4 |
| 9 | `COc1cccc(-c2cc(C(=O)NCCCC(F)(F)F)[nH]n2)c1` | 7.799 |
| 10 | `COCCCNc1nc(CNC(=O)C2CCC2)cc(-c2ccco2)n1` | 9.656 |
| 11 | `CS(=O)(=O)c1ccc(NCc2ccc(F)cc2)cn1` | 6.259 |
| 12 | `CN1CCCC1CNC(=O)CCCOc1ccc(Cl)cc1` (stereo not drawn) | -37.55 |
| 13 | `CCc1ccc(C(=O)NCc2cccc(S(=O)(=O)NC)c2)o1` | 4.371 |
| 14 | `Cc1cc(=O)c2ccccc2n1CC1CCCN(C)C1` (stereo not drawn) | 9.27 |
| 15 | `CC(C)NC(=O)CC(C)NCc1ccc(F)cc1Cl` (stereo not drawn) | -0.944 |
| 16 | `Cc1c(Br)c(C(F)F)nn1C(C)C(=O)O` (stereo not drawn) | -39.69 |
| 17 | `CCC(O)CN1CCN(C(=O)c2sccc2C2CC2)CC1` (stereo not drawn) | -18.81 |
| 18 | `COCCn1ccc2c(C(=O)Nc3nc4c(s3)CCC4)cccc21` | 2.834 |
| 19 | `CN(C)C(C(=O)N1CCN(CC(F)(F)F)CC1)c1ccccc1F` (stereo not drawn) | -6.862 |
| 20 | `c1cncc(CN2Cc3nccn3CC(Cn3cncn3)C2)c1` (stereo not drawn) | 14.7 |
| 21 | `CC(C)N1CCC(Cc2cnc(-c3cccc(C(=O)O)c3)cn2)C1` (stereo not drawn) | 0.4226 |
| 22 | `CC(=O)NCCCn1ncc2c(C)cccc21` | 10.89 |
| 23 | `Cc1cc(C2CCCN(C(=O)COc3ccccc3F)C2)n[nH]1` (stereo not drawn) | -0.9968 |
| 24 | `CN1CCCN(S(C)(=O)=O)c2cc(F)ccc21` | 5.255 |
| 25 | `CC(NC(=O)NCc1cccc(N2CCCC2=O)c1)c1ccccc1` (stereo not drawn) | 4.088 |
| 26 | `CN(Cc1ccc(-n2cccn2)cc1)C[C@@H]1CCCN2CCCC[C@H]12` | -9.425 |
| 27 | `CSCCC(C)(O)CNS(=O)(=O)Cc1ccc(F)cc1` (stereo not drawn) | -7.273 |
| 28 | `Cc1ncnc2c1CCN(S(=O)(=O)C1CC1)CC2` | 1.253 |
| 29 | `COC(=O)c1cccc(S(=O)(=O)NC(=O)COC2CCCCC2)c1` | -7.367 |
| 30 | `COc1ccc(C(C#N)NC(=O)CC2=CCCCC2)c(OC)c1` (stereo not drawn) | -0.9636 |
| 31 | `COCC(=O)N1CCC2(CC(C(=O)NCc3cccnc3)=NO2)C1` (stereo not drawn) | -5.945 |
| 32 | `CNc1cc2c(nn1)CCN(C(=O)c1cc(C)n(C3CC3)c1C)C2` | -20.37 |
| 33 | `Cc1nc(COC[C@H]2CCC[C@@]23CN(C(C)C)CCO3)cs1` | -8.707 |
| 34 | `Cc1ncoc1C(=O)N1CCn2c(COCC3CC3)cnc2C1C` (stereo not drawn) | -0.242 |
| 35 | `CC(C)c1cc(C2CCCN2Cc2nc(-c3ccco3)no2)no1` (stereo not drawn) | -6.315 |
| 36 | `Cc1nc(C2CCCN2C(=O)CC2CCCC2)ncc1C(N)=O` (stereo not drawn) | -10.07 |
| 37 | `O=C(C[C@@H]1COC[C@H]2CN(CC3CCOCC3)C[C@@H]12)N1CCCCO1` | -1.397 |
| 38 | `O=C(NC1CC1)C1CNCCN1C(=O)CCc1ccc2c(c1)OCO2` (stereo not drawn) | 2.892 |
| 39 | `O=C(NCC1CCCO1)Nc1nnc(C(F)(F)F)s1` (stereo not drawn) | -12.34 |
| 40 | `COC(=O)CC(c1cccnc1)c1oc(C)cc(=O)c1O` (stereo not drawn) | -6.942 |
| 41 | `CCN1CCN(CCNC(=O)c2sc(C(C)C)nc2C)CC1` | -11.4 |
| 42 | `CC(C)Nc1nc(O)cc(C2CC(=O)N(Cc3ccccn3)C2)n1` (stereo not drawn) | -3.071 |
| 43 | `Cc1nc(C2CCCN(C(=O)c3cccc4c3OCO4)C2)sc1C` (stereo not drawn) | 16.31 |
| 44 | `COCc1cc(O)nc(C2CCCN(Cc3ccc(OC)cc3)C2)n1` (stereo not drawn) | -13.84 |
| 45 | `COCCC(=O)N1Cc2ccccc2OC2(CCOCC2)C1` | -15.47 |
| 46 | `COc1ccc(Cl)cc1C(=O)N1C[C@@H](NC(=O)N(C)C)[C@H](C(C)C)C1` | 10.42 |
| 47 | `Cc1noc(C)c1CNc1c(N2CCCC2)cccc1N1CCCC1` | 4.447 |
| 48 | `COc1cc(C2SCC(=O)Nc3[nH]ncc32)cc2c1OCO2` (stereo not drawn) | -0.8483 |

Some entries from above, unchanged:

* Cc1ncnc2c1CCN(S(=O)(=O)C1CC1)CC2 : 1.253%
* c1cncc(CN2Cc3nccn3CC(Cn3cncn3)C2)c1 (stereo not drawn) : 14.7%
* COCc1cc(O)nc(C2CCCN(Cc3ccc(OC)cc3)C2)n1 (stereo not drawn) : -13.84%